# The supplement of paper PMC8728848
# The list shows a part of the results.
# B1: GST Gap3 (Streptococcus parasanguinis) (protein)
# chain: MTKQLISEIYWNEIRKGENYLYGSQIKFQEDLVNFYNPQLASGKPIVTFKSRTNYQGDRHSPDLPILIQGNRYLLEYQIDAVPANSFFLQLDFFNRQAEQIESIVLRNSGESFIFPKDTFTYTLTLMSAGCQSVTYQKFMIYDINDEEKKNHIVENRYLRELLPKDLDLVKNLIEYI
# Experiments:
# Assay in all cases: glycan array binding signal (z-score within array); higher = stronger binding
# Conditions in all cases: glycan notation: IUPAC condensed, linker removed
# Gal(b1-4)GlcNAc = biological target: Gal(b1-4)GlcNAc
# In short: (§1)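 Glycan array data came from 3228 arrays in the Consortium for Functional Glycomics database, and only arrays with an available protein sequence were kept. Glycan names were put into IUPAC-condensed notation, and columns mapping to the same glycan were averaged. The binding signal is a within-array Z-score, averaged across arrays of one protein sequence run at different concentrations or buffers and across linkers. A negative Z-score can be read as non-binding.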
# [1] = biological target: Gal(b1-4)GlcNAc(a1-6)Gal(b1-4)GlcNAc
# In short: as §1
# Gal(b1-4)GlcNAc(b1-2)Man = biological target: Gal(b1-4)GlcNAc(b1-2)Man
# In short: as §1
# [2] = biological target: Gal(b1-4)GlcNAc(b1-2)Man(a1-3)Man(b1-4)GlcNAc(b1-4)GlcNAc
# In short: as §1
# [3] = biological target: Gal(b1-4)GlcNAc(b1-2)Man(a1-3)[Gal(b1-4)GlcNAc(b1-2)Man(a1-6)]Man(b1-4)GlcNAc(b1-4)GlcNAc
# In short: as §1
# [4] = biological target: Gal(b1-4)GlcNAc(b1-2)Man(a1-3)[Gal(b1-4)GlcNAc(b1-2)Man(a1-6)]Man(b1-4)GlcNAc(b1-4)[Fuc(a1-6)]GlcNAc
# In short: as §1
# [5] = biological target: Gal(b1-4)GlcNAc(b1-2)Man(a1-3)[Gal(b1-4)GlcNAc(b1-2)Man(a1-6)][Gal(b1-4)GlcNAc(b1-4)]Man(b1-4)GlcNAc(b1-4)[Fuc(a1-6)]GlcNAc
# In short: as §1
# [6] = biological target: Gal(b1-4)GlcNAc(b1-2)Man(a1-3)[Gal(b1-4)GlcNAc(b1-2)Man(a1-6)][GlcNAc(b1-4)]Man(b1-4)GlcNAc(b1-4)[Fuc(a1-6)]GlcNAc
# In short: as §1
# [7] = biological target: Gal(b1-4)GlcNAc(b1-2)Man(a1-3)[Gal(b1-4)GlcNAc(b1-2)][GlcNAc(b1-4)]Man(b1-4)GlcNAc(b1-4)GlcNAc
# In short: as §1
# [8] = biological target: Gal(b1-4)GlcNAc(b1-2)Man(a1-3)[GlcNAc(b1-2)Man(a1-6)]Man(b1-4)GlcNAc(b1-4)GlcNAc
# In short: as §1
# [9] = biological target: Gal(b1-4)GlcNAc(b1-2)Man(a1-3)[GlcNAc(b1-4)][Gal(b1-4)GlcNAc(b1-2)Man(a1-6)]Man(b1-4)GlcNAc(b1-4)GlcNAc
# In short: as §1
# [10] = biological target: Gal(b1-4)GlcNAc(b1-2)Man(a1-3)[Man(a1-6)]Man(b1-4)GlcNAc(b1-4)GlcNAc
# In short: as §1
# [11] = biological target: Gal(b1-4)GlcNAc(b1-2)Man(a1-6)Man(b1-4)GlcNAc(b1-4)GlcNAc
# In short: as §1
# [12] = biological target: Gal(b1-4)GlcNAc(b1-2)Man(a1-6)[GlcNAc(b1-2)Man(a1-3)]Man(b1-4)GlcNAc(b1-4)GlcNAc
# In short: as §1
# [13] = biological target: Gal(b1-4)GlcNAc(b1-2)Man(a1-6)[Man(a1-3)]Man(b1-4)GlcNAc(b1-4)GlcNAc
# In short: as §1
# [14] = biological target: Gal(b1-4)GlcNAc(b1-2)[Gal(b1-4)GlcNAc(b1-4)]Man(a1-3)[Gal(b1-4)GlcNAc(b1-2)Man(a1-6)]Man(b1-4)GlcNAc(b1-4)GlcNAc
# In short: as §1
# [15] = biological target: Gal(b1-4)GlcNAc(b1-2)[Gal(b1-4)GlcNAc(b1-4)]Man(a1-3)[Gal(b1-4)GlcNAc(b1-2)[Gal(b1-4)GlcNAc(b1-6)]Man(a1-6)]Man(b1-4)GlcNAc(b1-4)GlcNAc
# In short: as §1
# [16] = biological target: Gal(b1-4)GlcNAc(b1-2)[Gal(b1-4)GlcNAc(b1-4)]Man(a1-3)[GlcNAc(b1-4)][Gal(b1-4)GlcNAc(b1-2)Man(a1-6)]Man(b1-4)GlcNAc(b1-4)GlcNAc
# In short: as §1
# [17] = biological target: Gal(b1-4)GlcNAc(b1-2)[Gal(b1-4)GlcNAc(b1-4)]Man(a1-3)[GlcNAc(b1-4)][Gal(b1-4)GlcNAc(b1-2)[Gal(b1-4)GlcNAc(b1-6)]Man(a1-6)]Man(b1-4)GlcNAc(b1-4)GlcNAc
# In short: as §1
# [18] = biological target: Gal(b1-4)GlcNAc(b1-2)[Gal(b1-4)GlcNAc(b1-6)]Man(a1-6)[Gal(b1-4)GlcNAc(b1-2)Man(a1-3)]Man(b1-4)GlcNAc(b1-4)GlcNAc
# In short: as §1
# [19] = biological target: Gal(b1-4)GlcNAc(b1-2)[Gal(b1-4)GlcNAc(b1-6)]Man(a1-6)[Gal(b1-4)GlcNAc(b1-2)Man(a1-3)]Man(b1-4)GlcNAc(b1-4)[Fuc(a1-6)]GlcNAc
# In short: as §1
# [20] = biological target: Gal(b1-4)GlcNAc(b1-2)[Gal(b1-4)GlcNAc(b1-6)]Man(a1-6)[GlcNAc(b1-4)][Gal(b1-4)GlcNAc(b1-2)Man(a1-3)]Man(b1-4)GlcNAc(b1-4)GlcNAc
# In short: as §1
binder,measurement,setting,value
B1,glycan array binding signal (z-score),Gal(b1-4)GlcNAc,-0.256
same,glycan array binding signal (z-score),[1],-0.425
same,glycan array binding signal (z-score),Gal(b1-4)GlcNAc(b1-2)Man,-0.221
same,glycan array binding signal (z-score),[2],0.302
same,glycan array binding signal (z-score),[3],0.471
same,glycan array binding signal (z-score),[4],-0.204
same,glycan array binding signal (z-score),[5],-0.033
same,glycan array binding signal (z-score),[6],-0.477
same,glycan array binding signal (z-score),[7],-0.614
same,glycan array binding signal (z-score),[8],0.067
same,glycan array binding signal (z-score),[9],0.235
same,glycan array binding signal (z-score),[10],1.04
same,glycan array binding signal (z-score),[11],0.144
same,glycan array binding signal (z-score),[12],-0.251
same,glycan array binding signal (z-score),[13],0.013
same,glycan array binding signal (z-score),[14],0.283
same,glycan array binding signal (z-score),[15],0.566
same,glycan array binding signal (z-score),[16],-0.238
same,glycan array binding signal (z-score),[17],0.389
same,glycan array binding signal (z-score),[18],1.94
same,glycan array binding signal (z-score),[19],0.799
same,glycan array binding signal (z-score),[20],0.491

# 2 entries picked at random from those above:
binder,measurement,setting,value
B1,glycan array binding signal (z-score),[2],0.302
same,glycan array binding signal (z-score),[1],-0.425
